{"source": "PubChem BioAssay AID504774 (Drosophila RNAi Screening Center, 2011)", "test": "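Fly genes whose loss alters survival after alkylation damage to DNA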 (primary screen)", "system": "Drosophila Kc167 cells", "reagent": "long dsRNA against Drosophila genes, about 0.25 µg dsRNA per well", "timing": "about 6 days: 3 days knock-down, then 3 days with or without MMS", "challenge": "methyl methanesulphonate 0.004% (w/v) for 3 days after knock-down", "measurement": "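Viability in wells given MMS, read as ATP luminescence, normalised by quantiles plate by plate and averaged across replicates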", "scale": "mean viability with MMS and viability with MMS: higher = more surviving cells after MMS", "note": "In all, the deposit lists about 23,000 reagents; this is an unselected part of those that have a named target and a result. 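Values are quantile-normalised luminescence on an arbitrary scale; higher means more cells surviving MMS.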 Names joined by + are all predicted targets of the reagent. Further read-outs or replicates are left out here. No sequences are given here."}
{"predicted target":"piwi (GeneID 34521)","amplicon":"DRSC03592","mean viability with MMS":3.52e6,"viability with MMS, replicate 1":4.01e6}
{"predicted target":"NANS (GeneID 41528)","amplicon":"DRSC15743","mean viability with MMS":3.66e6,"viability with MMS, replicate 1":4.10e6}
{"predicted target":"CG33722 + CG18749","amplicon":"DRSC12674","mean viability with MMS":3.69e6,"viability with MMS, replicate 1":4.17e6}
{"predicted target":"CG33722 + CG18749","amplicon":"DRSC15386","mean viability with MMS":3.53e6,"viability with MMS, replicate 1":4.03e6}
{"predicted target":"CG15414 (GeneID 33570)","amplicon":"DRSC00429","mean viability with MMS":3.65e6,"viability with MMS, replicate 1":4.08e6}
{"predicted target":"CG15414 (GeneID 33570)","amplicon":"DRSC22353","mean viability with MMS":3.58e6,"viability with MMS, replicate 1":3.98e6}
{"predicted target":"CG13358 (GeneID 31029)","amplicon":"DRSC18534","mean viability with MMS":3.65e6,"viability with MMS, replicate 1":4.22e6}
{"predicted target":"Cyp4c3 (GeneID 43663)","amplicon":"DRSC16631","mean viability with MMS":3.38e6,"viability with MMS, replicate 1":3.90e6}
{"predicted target":"Ggamma30A (GeneID 45234)","amplicon":"DRSC02715","mean viability with MMS":3.51e6,"viability with MMS, replicate 1":3.98e6}
{"predicted target":"Ggamma30A (GeneID 45234)","amplicon":"DRSC03331","mean viability with MMS":3.63e6,"viability with MMS, replicate 1":4.16e6}
{"predicted target":"CG14111 (GeneID 39497)","amplicon":"DRSC10114","mean viability with MMS":3.59e6,"viability with MMS, replicate 1":3.98e6}
{"predicted target":"CG6048 (GeneID 31528)","amplicon":"DRSC18398","mean viability with MMS":3.55e6,"viability with MMS, replicate 1":4.12e6}
{"predicted target":"MtnC (GeneID 42416)","amplicon":"DRSC22879","mean viability with MMS":3.44e6,"viability with MMS, replicate 1":3.89e6}
{"predicted target":"CG2861 (GeneID 31414)","amplicon":"DRSC18229","mean viability with MMS":3.63e6,"viability with MMS, replicate 1":4.24e6}
{"predicted target":"DCTN3-p24 (GeneID 46074)","amplicon":"DRSC04592","mean viability with MMS":3.44e6,"viability with MMS, replicate 1":3.77e6}
{"predicted target":"Pdfr (GeneID 31234)","amplicon":"DRSC18614","mean viability with MMS":3.40e6,"viability with MMS, replicate 1":3.95e6}
{"predicted target":"Pif2 (GeneID 170876)","amplicon":"DRSC12525","mean viability with MMS":3.62e6,"viability with MMS, replicate 1":4.08e6}
{"predicted target":"CG10950 (GeneID 36942)","amplicon":"DRSC06020","mean viability with MMS":3.62e6,"viability with MMS, replicate 1":3.93e6}
{"predicted target":"mesh (GeneID 43688)","amplicon":"DRSC14472","mean viability with MMS":1.99e6,"viability with MMS, replicate 1":4.01e6}
{"predicted target":"mesh (GeneID 43688)","amplicon":"DRSC15098","mean viability with MMS":3.53e6,"viability with MMS, replicate 1":3.94e6}
{"predicted target":"mesh (GeneID 43688)","amplicon":"DRSC15099","mean viability with MMS":3.36e6,"viability with MMS, replicate 1":3.69e6}
{"predicted target":"Vps16B (GeneID 43521)","amplicon":"DRSC15304","mean viability with MMS":3.58e6,"viability with MMS, replicate 1":4.22e6}
{"predicted target":"CG4455 (GeneID 34975)","amplicon":"DRSC01983","mean viability with MMS":3.48e6,"viability with MMS, replicate 1":3.92e6}
{"predicted target":"CG4455 (GeneID 34975)","amplicon":"DRSC21684","mean viability with MMS":3.58e6,"viability with MMS, replicate 1":4.05e6}
{"predicted target":"CG17784 (GeneID 42909)","amplicon":"DRSC15268","mean viability with MMS":3.54e6,"viability with MMS, replicate 1":4.17e6}
{"predicted target":"cu (GeneID 41339)","amplicon":"DRSC15643","mean viability with MMS":3.49e6,"viability with MMS, replicate 1":4.00e6}
{"predicted target":"cu (GeneID 41339)","amplicon":"DRSC15648","mean viability with MMS":3.49e6,"viability with MMS, replicate 1":3.88e6}
{"predicted target":"CG9184 (GeneID 38152)","amplicon":"DRSC08636","mean viability with MMS":3.60e6,"viability with MMS, replicate 1":3.86e6}
{"predicted target":"CG9184 (GeneID 38152)","amplicon":"DRSC22184","mean viability with MMS":3.45e6,"viability with MMS, replicate 1":3.96e6}
{"predicted target":"Ldaf1 (GeneID 326240)","amplicon":"DRSC17963","mean viability with MMS":3.60e6,"viability with MMS, replicate 1":4.07e6}
{"predicted target":"Tsp39D (GeneID 35405)","amplicon":"DRSC03099","mean viability with MMS":3.42e6,"viability with MMS, replicate 1":3.82e6}
{"predicted target":"CG1724 (GeneID 33097)","amplicon":"DRSC20548","mean viability with MMS":3.51e6,"viability with MMS, replicate 1":3.95e6}
{"predicted target":"RpS13 (GeneID 34149)","amplicon":"DRSC03419","mean viability with MMS":2.66e6,"viability with MMS, replicate 1":2.94e6}
{"predicted target":"CG34241 (GeneID 5740575)","amplicon":"DRSC09157","mean viability with MMS":3.52e6,"viability with MMS, replicate 1":3.97e6}
{"predicted target":"Inx7 + cm","amplicon":"DRSC18753","mean viability with MMS":3.61e6,"viability with MMS, replicate 1":4.01e6}
{"predicted target":"CG18135 (GeneID 40073)","amplicon":"DRSC10295","mean viability with MMS":3.52e6,"viability with MMS, replicate 1":4.04e6}
{"predicted target":"mRpL43 (GeneID 37750)","amplicon":"DRSC04508","mean viability with MMS":3.70e6,"viability with MMS, replicate 1":4.09e6}
{"predicted target":"mRpL43 (GeneID 37750)","amplicon":"DRSC22571","mean viability with MMS":3.45e6,"viability with MMS, replicate 1":3.98e6}
{"predicted target":"MTF-1 (GeneID 39089)","amplicon":"DRSC08983","mean viability with MMS":3.46e6,"viability with MMS, replicate 1":4.00e6}
{"predicted target":"MTF-1 (GeneID 39089)","amplicon":"DRSC11217","mean viability with MMS":3.74e6,"viability with MMS, replicate 1":3.98e6}
{"predicted target":"MTF-1 (GeneID 39089)","amplicon":"DRSC21341","mean viability with MMS":3.60e6,"viability with MMS, replicate 1":4.12e6}
{"predicted target":"ft (GeneID 33627)","amplicon":"DRSC00819","mean viability with MMS":3.46e6,"viability with MMS, replicate 1":3.92e6}
{"predicted target":"alpha-Est10 (GeneID 40896)","amplicon":"DRSC12613","mean viability with MMS":3.48e6,"viability with MMS, replicate 1":4.00e6}
{"predicted target":"ND1 (retired record) (GeneID 192473)","amplicon":"DRSC21273","mean viability with MMS":3.45e6,"viability with MMS, replicate 1":3.89e6}
{"predicted target":"Edg91 (GeneID 42117)","amplicon":"DRSC16657","mean viability with MMS":3.21e6,"viability with MMS, replicate 1":3.70e6}

6 entries from above, reformatted.
predicted target	amplicon	mean viability with MMS	viability with MMS, replicate 1
NANS (GeneID 41528)	DRSC15743	3.66e6	4.10e6
CG33722 + CG18749	DRSC12674	3.69e6	4.17e6
CG33722 + CG18749	DRSC15386	3.53e6	4.03e6
CG15414 (GeneID 33570)	DRSC00429	3.65e6	4.08e6
CG15414 (GeneID 33570)	DRSC22353	3.58e6	3.98e6
CG13358 (GeneID 31029)	DRSC18534	3.65e6	4.22e6
